Experimental data: the supplement of paper PMC11348887
This is one part of the list. Small differences around the control level are noise.

What was measured:
Details in all cases: 5 µM; treatment: days 7-14 after plating, readout day 21
[1] = test system: hPSC-derived cortical neurons (WA09); assay: nucleus area z-score vs screen plate; higher = larger nuclei (more mature)
[2] = test system: hPSC-derived cortical neurons (WA09); assay: total neurite length per nucleus (MAP2) z-score; higher = more neurite growth
[3] = test system: hPSC-derived cortical neurons (WA09); assay: nucleus roundness z-score vs screen plate; higher = rounder nuclei (more mature)
[4] = test system: hPSC-derived cortical neurons (WA09); assay: KCl-induced FOS+/EGR-1+ double-positive nuclei fraction z-score (KCl minus unstimulated); higher = stronger activity-induced IEG response

## O=C(O)c1cc(/N=N/c2ccc(S(=O)(=O)Nc3ccccn3)cc2)ccc1O [Sulfasalazine]
[1]
  nucleus area z-score: -0.835
[2]
  total neurite length per nucleus (z-score): 0.245
[3]
  nucleus roundness z-score: -0.557
[4]
  KCl-induced FOS+/EGR-1+ double-positive nuclei fraction z-score: -0.726

## CO[C@H]1/C=C/O[C@@]2(C)Oc3c(C)c(O)c4c(O)c(c(/C=N/N5CCN(C)CC5)c(O)c4c3C2=O)NC(=O)/C(C)=C\C=C\[C@H](C)[C@H](O)[C@@H](C)[C@@H](O)[C@@H](C)[C@H](OC(C)=O)[C@@H]1C [Rifampin]
[1]
  nucleus area z-score: -0.751
[2]
  total neurite length per nucleus (z-score): -0.104
[3]
  nucleus roundness z-score: -1.12
[4]
  KCl-induced FOS+/EGR-1+ double-positive nuclei fraction z-score: -1.58

## CCCNC(=O)c1cn2ncnc(Nc3cc(C(=O)NC4CC4)ccc3C)c2c1C
[1]
  nucleus area z-score: 0.901
[2]
  total neurite length per nucleus (z-score): 1.28
[3]
  nucleus roundness z-score: -0.288
[4]
  KCl-induced FOS+/EGR-1+ double-positive nuclei fraction z-score: -0.0322

## c1cncc(CN2CCC(n3ncc4c(N5CCOCC5)nc(-c5ccc6[nH]ccc6c5)nc43)CC2)c1
[1]
  nucleus area z-score: -6.6
[2]
  total neurite length per nucleus (z-score): -1.68
[3]
  nucleus roundness z-score: -1.17
[4]
  KCl-induced FOS+/EGR-1+ double-positive nuclei fraction z-score: -0.838

## CNCc1ccc(C)c(NC(=O)c2ccc(Nc3nc(-c4ccccc4)c4ccccc4n3)cc2)c1
[1]
  nucleus area z-score: -4.34
[2]
  total neurite length per nucleus (z-score): -0.948
[3]
  nucleus roundness z-score: -6.8
[4]
  KCl-induced FOS+/EGR-1+ double-positive nuclei fraction z-score: -6.62

## OC[C@H]1O[C@@H](O[C@@H]2[C@@H](CO)OC(O)(CO)[C@H]2O)[C@H](O)[C@@H](O)[C@H]1O (mixture of isomers) [Lactulose]
[1]
  nucleus area z-score: 0.196
[2]
  total neurite length per nucleus (z-score): 0.0394
[3]
  nucleus roundness z-score: -0.168
[4]
  KCl-induced FOS+/EGR-1+ double-positive nuclei fraction z-score: -0.123

## O=C1[C@H](CC[C@H](O)c2ccc(F)cc2)[C@@H](c2ccc(O)cc2)N1c1ccc(F)cc1 [Ezetimibe]
[1]
  nucleus area z-score: -0.0199
[2]
  total neurite length per nucleus (z-score): 0.576
[3]
  nucleus roundness z-score: 1.44
[4]
  KCl-induced FOS+/EGR-1+ double-positive nuclei fraction z-score: 0.102

## Cc1ccc(OCC(O)C(C)NC(C)C)c2c1CCC2 (stereo unspecified)
[1]
  nucleus area z-score: 0.078
[2]
  total neurite length per nucleus (z-score): -0.228
[3]
  nucleus roundness z-score: -0.466
[4]
  KCl-induced FOS+/EGR-1+ double-positive nuclei fraction z-score: -0.358

## O=C(NCc1ccccc1)c1csc(Nc2ccncn2)n1 [Thiazovivin]
[1]
  nucleus area z-score: 0.55
[2]
  total neurite length per nucleus (z-score): -0.246
[3]
  nucleus roundness z-score: 0.173
[4]
  KCl-induced FOS+/EGR-1+ double-positive nuclei fraction z-score: 0.00892
